Data as given in article PMC8254043.
Changes are numbered by the printed parent chain. No constants are given. Whether binding was seen depends on the method and setting. Binding seen in cells or lysates may run through a third protein. Some results given as binding are weak or reduced against the parent protein; the word gives no strength.

By UniProt entry, the sequences of proteins in these tests, tags left out.
UniProt Q9UQM7: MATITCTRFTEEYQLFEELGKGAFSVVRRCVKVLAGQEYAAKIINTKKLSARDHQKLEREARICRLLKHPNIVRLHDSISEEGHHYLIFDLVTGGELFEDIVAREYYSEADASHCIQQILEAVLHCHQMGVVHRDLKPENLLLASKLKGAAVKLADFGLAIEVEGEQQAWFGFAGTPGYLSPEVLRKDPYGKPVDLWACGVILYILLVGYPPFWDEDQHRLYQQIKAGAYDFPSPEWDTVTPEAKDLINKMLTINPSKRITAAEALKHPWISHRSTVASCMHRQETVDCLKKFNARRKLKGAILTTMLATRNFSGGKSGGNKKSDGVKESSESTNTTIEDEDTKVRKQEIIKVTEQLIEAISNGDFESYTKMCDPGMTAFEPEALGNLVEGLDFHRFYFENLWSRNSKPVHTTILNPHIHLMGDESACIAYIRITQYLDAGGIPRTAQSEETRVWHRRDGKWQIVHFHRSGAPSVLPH
UniProt P11798: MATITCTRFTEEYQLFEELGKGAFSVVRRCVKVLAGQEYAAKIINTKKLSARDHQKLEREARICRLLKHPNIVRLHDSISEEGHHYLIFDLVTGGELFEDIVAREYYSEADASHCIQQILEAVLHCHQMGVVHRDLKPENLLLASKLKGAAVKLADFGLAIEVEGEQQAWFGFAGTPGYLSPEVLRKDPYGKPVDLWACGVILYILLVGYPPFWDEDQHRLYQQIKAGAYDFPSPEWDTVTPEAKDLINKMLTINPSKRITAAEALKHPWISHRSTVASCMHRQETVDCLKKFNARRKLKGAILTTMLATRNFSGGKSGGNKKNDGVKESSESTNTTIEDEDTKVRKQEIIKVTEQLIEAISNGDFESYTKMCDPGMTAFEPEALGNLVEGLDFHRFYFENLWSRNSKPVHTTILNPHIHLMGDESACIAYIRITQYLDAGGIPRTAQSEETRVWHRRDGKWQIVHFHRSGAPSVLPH
UniProt P97346: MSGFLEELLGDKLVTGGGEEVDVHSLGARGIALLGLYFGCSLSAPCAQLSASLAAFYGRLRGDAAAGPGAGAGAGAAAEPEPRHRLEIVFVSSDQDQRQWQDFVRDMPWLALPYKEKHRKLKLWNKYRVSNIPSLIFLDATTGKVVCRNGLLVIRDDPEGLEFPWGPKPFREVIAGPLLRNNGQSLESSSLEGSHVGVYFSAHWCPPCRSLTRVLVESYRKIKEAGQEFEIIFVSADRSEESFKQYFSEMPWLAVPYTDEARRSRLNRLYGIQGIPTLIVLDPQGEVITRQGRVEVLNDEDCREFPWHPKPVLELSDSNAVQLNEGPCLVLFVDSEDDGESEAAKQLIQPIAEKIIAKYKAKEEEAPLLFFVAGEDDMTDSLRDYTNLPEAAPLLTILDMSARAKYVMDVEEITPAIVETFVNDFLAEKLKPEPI

Key:
[1] = molecular target: T1, Nucleoredoxin (NXN) in HEK293 cell lysate (human (endogenous in HEK293)) (UniProt Q6DKJ4); experiment: co-IP; HEK293 crude lysate (RIPA buffer, 1 mg); anti-NXN or anti-Camk2a antibody with protein A/G PLUS-agarose beads overnight at 4 °C; Western blot with IR dye secondary antibodies
T1 sequence: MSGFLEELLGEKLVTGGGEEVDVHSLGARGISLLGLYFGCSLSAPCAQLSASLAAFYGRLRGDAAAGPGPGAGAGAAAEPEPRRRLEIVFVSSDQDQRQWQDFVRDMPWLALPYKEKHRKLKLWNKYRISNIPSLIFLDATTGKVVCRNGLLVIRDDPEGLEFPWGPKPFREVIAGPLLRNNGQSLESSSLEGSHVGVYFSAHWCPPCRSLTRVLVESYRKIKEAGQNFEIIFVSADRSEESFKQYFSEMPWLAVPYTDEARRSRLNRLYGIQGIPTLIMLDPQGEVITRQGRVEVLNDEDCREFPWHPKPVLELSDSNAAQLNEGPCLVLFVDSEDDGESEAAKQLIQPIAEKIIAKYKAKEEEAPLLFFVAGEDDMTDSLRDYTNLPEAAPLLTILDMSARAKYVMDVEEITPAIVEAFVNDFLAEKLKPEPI

[2] = molecular target: Calcium calmodulin kinase 2a (Camk2a) in HEK293 cell lysate (human (endogenous in HEK293)) (UniProt Q9UQM7); experiment: as above
[3] = molecular target: Calcium calmodulin kinase 2a (Camk2a), mouse, endogenous in primary cortical neurons and brain (mouse (endogenous in primary cortical neurons)) (UniProt P11798); experiment: proximity ligation; Duolink In Situ PLA kit on fixed, permeabilised mouse primary cortical neuron cultures of NXN-flfl and Nestin-NXN-/- mice; primary antibodies against NXN and Camk2a

Molecule: Calcium calmodulin kinase 2a (Camk2a) in HEK293 cell lysate (from UniProt Q9UQM7 1-478)
- binding [1]: binds

B1: Nucleoredoxin (NXN) in HEK293 cell lysate (protein, UniProt Q6DKJ4 1-435)
chain: T1 sequence
- binding [2]: binds

B2: Nucleoredoxin (NXN), mouse, endogenous in primary cortical neurons (protein, UniProt P97346 1-435)
chain: T1 sequence with E11D, S32A, P70A, R84H, I129V, N228E, M280V, A321V, A420T
- binding [3]: binds
